Laboratory results published in publication PMC3828283.

T1: GST-Inhibitor-1 wild type (human) (UniProt Q13522)
T1 sequence: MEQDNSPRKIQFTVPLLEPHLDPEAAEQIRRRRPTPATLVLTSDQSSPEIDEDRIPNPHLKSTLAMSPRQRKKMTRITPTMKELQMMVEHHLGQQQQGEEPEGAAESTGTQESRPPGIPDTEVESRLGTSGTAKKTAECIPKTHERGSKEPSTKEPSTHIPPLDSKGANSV


Legend:
Experiment in all cases: pull-down; GST or GST fusion protein bound to glutathione-Sepharose 4B mixed with 0.5 mg of mouse cardiac homogenates (untreated or treated beforehand with PKA) at 4°C for 16 h; 10 mM NaPO4 pH 7.2, 120 mM NaCl; western blot with PLN or PP1 antibody; only the target purified
[1] = molecular target: T1, GST-Inhibitor-1 wild type (human)
[2] = molecular target: GST-GM (aa1-778) (human)
[3] = molecular target: GST-GM (aa382-778) (human)

binding [1] | binding [2] | binding [3] | Molecule
binds |  |  | PP1 of cardiac homogenates (enzyme)
 | binds | binds | native PLN protein of cardiac homogenates (protein, UniProt P61014 1-52) MEKVQYLTRSAIRRASTIEMPQQARQNLQNLFINFCLILICLLLICIIVMLL

Results are given in words; binding and its absence hold for the method and conditions named. Binding seen in cells or lysates may run through a third protein. Binding calls can cover weak binding; strength is not graded here. For part of these data: Tags and fused reporters may be left off the sequences shown.
